In publication PMC9709059:
These are yes or no findings as the source states them, for the method shown. Binding seen in cells or lysates may run through a third protein. Some entries that bind do so weakly or less than the wild type.

Molecular target: T1, ASB6 (human (endogenous in CRC cell lines LoVo and HCT116)) (UniProt Q9NWX5)
T1 sequence: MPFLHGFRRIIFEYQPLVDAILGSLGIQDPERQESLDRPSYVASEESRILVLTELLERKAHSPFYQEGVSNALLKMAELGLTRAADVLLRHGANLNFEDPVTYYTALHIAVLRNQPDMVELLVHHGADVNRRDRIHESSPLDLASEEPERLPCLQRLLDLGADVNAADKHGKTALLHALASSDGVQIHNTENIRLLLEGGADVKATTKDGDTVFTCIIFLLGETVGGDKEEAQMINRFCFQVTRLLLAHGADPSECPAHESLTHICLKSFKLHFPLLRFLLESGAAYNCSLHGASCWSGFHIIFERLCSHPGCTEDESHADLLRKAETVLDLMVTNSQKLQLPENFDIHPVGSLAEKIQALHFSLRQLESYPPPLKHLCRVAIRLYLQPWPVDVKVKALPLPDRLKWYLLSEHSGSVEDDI
Assay: co-IP; anti-ASB6 antibody (2 ug, sc-515649) or normal mouse IgG incubated with cell lysates at 4 °C overnight, then Protein A/G agarose; eluted proteins analysed by Western blotting; also done in circFNDC3B-overexpressing cells (association enhanced)

binding: binds
B1: Ring finger protein 41 (RNF41) (enzyme, UniProt Q9H4P4 1-317)
chain: MGYDVTRFQGDVDEDLICPICSGVLEEPVQAPHCEHAFCNACITQWFSQQQTCPVDRSVVTVAHLRPVPRIMRNMLSKLQIACDNAVFGCSAVVRLDNLMSHLSDCEHNPKRPVTCEQGCGLEMPKDELPNHNCIKHLRSVVQQQQTRIAELEKTSAEHKHQLAEQKRDIQLLKAYMRAIRSVNPNLQNLEETIEYNEILEWVNSLQPARVTRWGGMISTPDAVLQAVIKRSLVESGCPASIVNELIENAHERSWPQGLATLETRQMNRRYYENYVAKRIPGKQAVVVMACENQHMGDDMVQEPGLVMIFAHGVEEI
